According to patent US20040115176A1, “Fibrin-based tissue-engineered vasculature” (priority 2002, published 2004):

System: fibrin gel constructs
Experiment: Stretch length at breaking tension
Set-up: species or system ovine

Q: Which breaking length (altered pulsation (1 hour per 12 hours), 20 μg/ml aprotinin, 2 wks) does the source give for aprotinin here?
A: The breaking length was 14.88±0.69 mm.

Q: What about the breaking length (non-pulsed, 10 μg/ml aprotinin, 14 days) of the same substance?
A: Its breaking length is 14.23±1.66 mm.

Q: And the breaking length (non-pulsed, 20 μg/ml aprotinin, 1 wk)?
A: The breaking length was 14.95±3.65 mm.

Q: What about the breaking length (non-pulsed, 20 μg/ml aprotinin, 3 wk) of the same substance?
A: Its breaking length is 12.70±1.30 mm.

Q: What about the breaking length (non-pulsed, 20 μg/ml aprotinin, 4 wk) of the same substance?
A: The breaking length was 10.87±0.96 mm.

Q: And the breaking length (non-pulsed, 20 μg/ml aprotinin, 8 wk)?
A: Its breaking length is 11.70±0.81 mm.

Q: And the breaking length (non-pulsed, 20 μg/ml aprotinin, 14 days (2 wk))?
A: Its breaking length is 14.00±2.05 mm.

Q: What about the breaking length (non-pulsed, 200 μg/ml aprotinin, 14 days) of the same substance?
A: Its breaking length is 13.05±2.26 mm.

Q: And the breaking length (pulsed, 10 μg/ml aprotinin, 14 days)?
A: The breaking length was 11.44±1.19 mm.

Q: What about the breaking length (pulsed, 20 μg/ml aprotinin, 1 wk) of the same substance?
A: The breaking length was 16.25±4.35 mm.

Q: What about the breaking length (pulsed, 20 μg/ml aprotinin, 3 wk) of the same substance?
A: The breaking length was 15.85±1.75 mm.

Q: What about the breaking length (pulsed, 20 μg/ml aprotinin, 4 wk) of the same substance?
A: Its breaking length is 12.77±1.57 mm.

Q: What about the breaking length (pulsed, 20 μg/ml aprotinin, 8 wk) of the same substance?
A: The breaking length was 12.90±1.15 mm.

Q: What about the breaking length (pulsed, 20 μg/ml aprotinin, 14 days (2 wk)) of the same substance?
A: Its breaking length is 13.45±2.76 mm.

Q: And the breaking length (pulsed, 200 μg/ml aprotinin, 14 days)?
A: The breaking length was 17.98±0.51 mm.
